PubChem BioAssay AID694 (Emory University Molecular Libraries Screening Center, 2007)
Values joined by “and” are separate entries in the source; they are usually repeats but may differ in a detail not shown here. Equal entries are not always repeated. This is one part of the list. Further columns of the screen follow, without active or inactive calls.

Chains of the proteins cited; added tags and fusions are not shown.
UniProt P03372, whole entry, looked up: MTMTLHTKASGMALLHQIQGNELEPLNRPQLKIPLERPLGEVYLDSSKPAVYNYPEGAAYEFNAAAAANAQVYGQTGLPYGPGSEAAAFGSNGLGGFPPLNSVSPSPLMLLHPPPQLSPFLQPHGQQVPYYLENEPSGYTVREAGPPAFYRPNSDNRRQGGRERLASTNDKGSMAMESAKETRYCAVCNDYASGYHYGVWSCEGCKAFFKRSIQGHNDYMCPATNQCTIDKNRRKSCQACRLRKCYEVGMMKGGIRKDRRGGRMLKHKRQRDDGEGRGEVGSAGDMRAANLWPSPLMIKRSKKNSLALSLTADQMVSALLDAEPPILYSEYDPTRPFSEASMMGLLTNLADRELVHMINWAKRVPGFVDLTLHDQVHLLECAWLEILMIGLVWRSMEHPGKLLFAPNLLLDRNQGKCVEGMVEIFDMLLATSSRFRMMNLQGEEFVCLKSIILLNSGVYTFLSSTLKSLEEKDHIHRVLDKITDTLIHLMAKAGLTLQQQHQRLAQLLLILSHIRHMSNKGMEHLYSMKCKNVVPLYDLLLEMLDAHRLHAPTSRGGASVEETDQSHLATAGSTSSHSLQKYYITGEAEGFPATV

These compounds were tested against Estrogen receptor (Homo sapiens) (UniProt P03372) (assay: blockers of coactivator recruitment to ERα – biochemical, LOPAC library, TR-FRET, primary screen (AID 694;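 also: receptor was agonist-bound with estradiol present during the assay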)). Details: TR-FRET ERalpha-coactivator peptide binding, at 15 µM, stronger effect = higher value.

Row | SMILES | inhibition
1 | NC(C(=O)O)c1cc(=O)[nH]o1 (configuration not stated) | 1.08%
2 | O=c1[nH]c2ccccc2n1C1CCN(CCCC(c2ccc(F)cc2)c2ccc(F)cc2)CC1 | 3.71%
3 | CCCN1CC[C@@H]2c3cc(O)ccc3CC[C@@H]21 | 4.38% and -0.24%
4 | CC(N)c1cccc(Cl)c1Cl (configuration not stated) | -1.52%
5 | C=CCN1CCC2(C)c3cc(O)ccc3CC1[C@@H]2C (some centres not stated) | -7.99%
6 | CCc1c(C(=O)OC)ncc2[nH]c3cc(OC)c(OC)cc3c12 | 2.41%
7 | CCCCC/C=C\C/C=C\C/C=C\C/C=C\CCCC(=O)NCC(=O)O | 19.1%
8 | CCCC(C)(COC(N)=O)COC(=O)NC(C)C (configuration not stated) | 0.13%
9 | Oc1ccc2c3c1O[C@H]1[C@@H](O)CC[C@@]4(O)C(C2)N(CC2CCC2)CCC314 (some centres not stated) | 1.6%
10 | C/C(O)=C(\C#N)C(=O)Nc1cc(Br)ccc1Br | -2.99%
11 | COc1ccc2c3c1O[C@H]1C(=O)CC[C@@]4(O)C(C2)N(CC2CC2)CCC314 (some centres not stated) | -5.95%
12 | NC1CCc2cc(O)c(O)cc2C1 (configuration not stated) | -0.12%
13 | C[C@]12CCC(=O)C=C1CC[C@@H]1[C@@H]2CC[C@]2(C)C(=O)CC[C@@H]12 | -8.15%
14 | C[C@H]1OC[C@@H](C[N+](C)(C)C)O1 | -0.65%
15 | CC(O)C(C)OC(=O)[C@@H]1C[C@@H]2c3cccc4c3c(cn4C(C)C)C[C@H]2N(C)C1 (some centres not stated) | 4.46%
16 | C[N+]1(C)C2CCC1CC(OC(=O)c1c[nH]c3ccccc13)C2 (configuration not stated) | 9.66%

Entries listed so far that contain a COOH group, in the order listed:
Row | SMILES | inhibition
1 | NC(C(=O)O)c1cc(=O)[nH]o1 (configuration not stated) | 1.08%
7 | CCCCC/C=C\C/C=C\C/C=C\C/C=C\CCCC(=O)NCC(=O)O | 19.1%

More results.

Row | SMILES | inhibition
17 | c1ccc2sc(C3(N4CCCCC4)CCCCC3)cc2c1 | 42.9%
18 | C[C@]12CCC3C(CC[C@H]4C[C@H](O)CC[C@]34C)C1CC[C@@H]2C(=O)CO (some centres not stated) | -2.53%
19 | COc1ccc(OC)c(C(O)C(C)N)c1 (configuration not stated) | 9.06%
20 | CC(C)CC(NP(=O)(O)O[C@@H]1O[C@@H](C)[C@H](O)[C@@H](O)[C@H]1O)C(=O)NC(Cc1c[nH]c2ccccc12)C(=O)O (some centres not stated) | -0.59%
21 | COc1ccc(CCN)cc1O | -1.14%
22 | CCCN1CCO[C@@H]2c3cc(O)ccc3OC[C@H]21 | 3.92% and 3.32%
23 | CC(=O)OCC1=C(C(=O)[O-])N2C(=O)[C@@H](NC(=O)CCC[C@@H](N)C(=O)[O-])[C@H]2SC1.[Zn+2] | 1.01%
24 | O=P1(N(CCCl)CCCl)NCCCO1 (configuration not stated) | -4.84%
25 | O=C(O)Cc1cnc[nH]1 | 2.8%
26 | CN1C2CCC1CC(OC(=O)c1cc(Cl)cc(Cl)c1)C2 (configuration not stated) | 1.51%
27 | O=P(O)(O)C(Cl)(Cl)P(=O)(O)O | 2.25%
28 | CC1=NN=C(c2ccc(N)cc2)c2cc3c(cc2C1)OCO3 | 2.48%
29 | O=C(O)c1cc[c]([Hg][Cl])cc1 | 5.03%
30 | C[C@]12CC[C@H]3[C@@H](CCC4C[C@H](O)CC[C@@]43C)[C@@H]1CC[C@@H]2O (some centres not stated) | -6.39%
31 | CC(=O)[C@H]1CC[C@H]2[C@@H]3CC[C@H]4C[C@H](O)CC[C@]4(C)[C@H]3C(=O)C[C@]12C | -3.44%
32 | CC(=O)c1c(O)c(C)c(O)c(Cc2c(O)c3c(c(C(=O)/C=C/c4ccccc4)c2O)OC(C)(C)C=C3)c1O | 13.2%
